According to patent US9073854B2, “Aromatic sulfonium salt compound” (ADEKA CORPORATION, priority 2009, dated 2015):

Tests used:
[1] = Negative resist composition: amount of energy of exposure required for cure; settings: compounds in the form of a hexafluoroantimonate, EPPN-201 resist, light of 405 nm
Description: Compound No. 5 and comparative compound No. 1 in the form of a hexafluoroantimonate were each synthesized. A resin solution was prepared by dissolving 100 g of EPPN-201 from Nippon Kayaku in 100 g of methyl ethyl ketone (MEK). A 0.05 g portion of each of the hexafluoroantimonate salts was dissolved in 8.00 g of the resin solution to obtain a resist solution. The resist solution was applied to an aluminum plate with a #9 bar coater and dried at 80° C. for 10 minutes. The resist was patternwise exposed to light using an ultrahigh pressure mercury lamp and a spectrometer, baked at 80° C. for 10 minutes, immersed in MEK for 30 seconds to be developed, and washed with xylene. An amount of energy of exposure required for cure was calculated from the pattern formed by irradiation with light of 405 nm.

[2] = Decomposition on exposure to light and resultant acid generation (titration); format: physicochemical; settings: 0.02 mmol/g acetonitrile solution; light of 365 nm, 0.8 mW/cm^2, 5 minutes; acid titer/theoretical mole number x 100
Description: A 0.02 mmol/g acetonitrile solution was prepared using each of compound Nos. 1 and 5 and comparative compound No. 1. A 5.00 g portion of the solution was put in a petri dish having an inner diameter of 93 mm and exposed to light of 365 nm at an irradiance of 0.8 mW/cm^2 for 5 minutes using a fluorescent lamp (FL10BL from Toshiba Corp.; tube length: 330 mm). The exposed solution was titrated with a 0.05 N ethanol solution of potassium hydroxide using BTB as a pH indicator. The titer as obtained was corrected by subtracting the titer of the solution before exposure determined in the same manner as a blank. The acid generation rate was calculated from the thus corrected titer according to the following formula. Acid generation rate(%)=acid titer(mol)/theoretical mole number of compound(mol)×100

In the case of O=c1c2ccccc2n(Cc2cccc(O)c2)c2ccc([S+](c3ccc(F)cc3)c3ccc(F)cc3)cc12 [Compound No. 5], the “Amount of Exposure (J/cm^2)” value [1] is reported as 0.1 J/cm^2.
In the case of Cn1c2ccccc2c(=O)c2cc([S+](c3ccc(F)cc3)c3ccc(F)cc3)ccc21 [Comp. Compound No. 1, reference compound], the “Acid Generation Rate (%)” value [2] is reported as 6.7% and the “Amount of Exposure (J/cm^2)” value [1] is reported as 1.9 J/cm^2.
In the case of Cn1c2ccccc2c(=O)c2cc([S+](c3ccc(O)cc3)c3ccc(O)cc3)ccc21 [Compound No. 1], the “Acid Generation Rate (%)” value [2] is reported as 35%.
For Cn1c2ccccc2c(=O)c2cc([S+](c3ccc(O)cc3)c3ccc(O)cc3)ccc21 [Compound No. 2], the “Acid Generation Rate (%)” value [2] was 19%.
